Data as given in patent US20060223812A1, “Treating neurodegenerative conditions” (MAX-PLANCK-GESELLSCHAFT ZUR FORDERUNGDER WISSENSCHAFTEN, …, priority 2004, published 2006).
Some results were stated once for a whole list of compounds, not compound by compound. Some ranges recur; such a range may be that of the whole group of compounds.

Sequences of proteins named here, by UniProt entry; tags and fusion partners are left off. Residues count along the entry.
UniProt P10636, 1-352 isoform P10636-2: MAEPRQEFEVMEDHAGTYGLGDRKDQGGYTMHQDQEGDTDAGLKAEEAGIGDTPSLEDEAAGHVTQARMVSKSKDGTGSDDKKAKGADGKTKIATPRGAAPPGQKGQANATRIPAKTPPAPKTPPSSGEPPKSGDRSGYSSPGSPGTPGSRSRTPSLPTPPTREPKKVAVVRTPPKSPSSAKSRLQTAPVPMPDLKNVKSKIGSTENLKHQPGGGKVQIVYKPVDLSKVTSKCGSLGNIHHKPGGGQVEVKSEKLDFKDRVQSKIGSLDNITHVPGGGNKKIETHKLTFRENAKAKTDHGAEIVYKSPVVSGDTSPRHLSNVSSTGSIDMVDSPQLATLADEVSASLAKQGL

Assays:
[1] = system: K18 filaments (Y310W); experiment: Tryptophan fluorescence depolymerisation assay, K18 filaments; format: biochemical, human; conditions: 60 μM compound
Protocol: For the fluorescence depolymerisation assay, 60 μM inhibitor compound were added to pre-formed PHFs (10 μM) and incubated overnight at 37° C. PHFs were formed by incubation of tau construct K19/Y310W (50 μM) or K18/ΔK280/Y310W with 12.5 μM heparin in volume of 100 μl at 37° C. in PBS, pH 7.4. Incubation time was three days. The formation of aggregates was observed as a shift of the emission maximum from ˜354 nm to ˜340 nm.
All other compounds yielded emission maxima of the protein after treatment around 350-353 nm, close to the value of soluble tau, indicating a depolymerisation efficiency of about 80-90%.
FIG. 5: Disassembly of preformed PHFs measured by tryptophan fluorescence shift assay and filter assay. Experiments were performed with tau constructs containing the Y310W mutation as in FIG. 3.

[2] = system: K18/ΔK280/Y310W; experiment: Tryptophan fluorescence inhibition assay, K18/ΔK280/Y310W; format: biochemical, human; conditions: 60 μM compound
From the text: In order to exclude a possible distortion of the data by the dye the results of the ThS assays can be confirmed by a tryptophan fluorescence assay (Li et al., 2002). It allows the detection of the molecular environment of a tryptophan introduced instead of tyrosine 310 whose emission maximum is sensitive to the burial in a more hydrophobic surrounding upon PHF formation. Therefore the mutants K19/Y310W (FIG. 1I) and K18/Y310W (FIG. 1H) that contain a single tryptophan within the core of the PHF structure were created. In the soluble protein the emission maximum lies at ˜354 nm, whereas it shifts to 340 nm upon PHF formation (FIG. 3A, compare first and second entry). The emission peak can be shifted back by incubation at high concentrations of GuHCl which is due to the disassembly of the PHFs (FIG. 3A, fourth entry).
The fluorescence experiments were performed on a Spex Fluoromax spectrophotometer (Polytec, Waldbronn, Germany) using 3 mm×3 mm micro cuvettes from Hellma (Mühlheim, Germany) with 20 μl sample volumes. […] The slit widths were 5 nm, the integration time was 0.25 second, and the photomultiplier voltage was 950 V. For fluorescence inhibition assay, 60 μM compounds were incubated with K19/Y310W construct (10 μM) or K18/ΔK280/Y310W and heparin (2.5 μM) in PBS, pH 7.4 three days at 37° C.
In the Trp fluorescence assay the inhibition of PHF assembly becomes apparent if the emission maximum of Trp310 remains higher than that of the control without any compound, because Trp310 remains in a more solvent-accessible hydrophilic environment. […] The apparent degrees of inhibition differ somewhat between the ThS fluorescence and the intrinsic Trp fluorescence assays, but this may be due to the different origins of the signal. […] The tryptophan fluorescence assay depends on the local surrounding of the residue and is therefore less dependent on the length of the filaments.
(A-C) fluorescence emission maximum of the single tryptophan W310 inserted by site-directed mutagenesis into tau constructs K19 (FIG. 3A), K18 (FIG. 3B) and K18/ΔK280 (FIG. 3C). […]

[3] = biological target: T1, PHFs from htau23 (Homo sapiens, UniProt P10636); experiment: Thioflavine S assay, depolymerisation of pre-formed PHFs, htau23; format: biochemical; conditions: read-out: Depolymerisation of PHFs DC50, hTau23, ThS fluorescence, listed as adriamycin
T1 construct: made in house; host or cells: E. coli
Protocol: The ThS assay was used to analyse the ability of the five compounds (see Example 4) to depolymerise pre-formed PHFs made from the repeat domain constructs K19 and K18 as well as from isoforms htau23 and htau24, containing 3 or 4 repeats, respectively.
PHFs assembled from the full length three repeat isoform htau23 were also sensitive to disaggregation (FIG. 4C). The DC50 values ranged from 7.0 to 60 μM.
Tau constructs and isoforms K19, K18, hTau23, hTau24 (10 μM) were first aggregated into PHFs for 48 hours in the presence of 2.5 μM heparin (except K18/ΔK280) and the polymers separated from the soluble tau by centrifugation of 1 h at 100,000 g, redissolved and then exposed to the inhibitors overnight at 37° C. at the indicated concentrations (range 0.001-200 μM).

| Structure (SMILES) | depolymerisation efficiency, K18 filaments, Trp fluorescence [1] | inhibition of PHF formation, K18/ΔK280, Trp fluorescence [2] | DC50 [3] |
| --- | --- | --- | --- |
| O=C1c2ccc(O)c(O)c2C(=O)c2c(O)ccc(O)c21 [PHF016, 1,2,5,8-Tetrahydroxy-anthraquinone] | not more than 10% | – | – |
| COc1cccc2c1C(=O)c1c(O)c3c(c(O)c1C2=O)CC(O)(C(=O)CO)CC3OC1CC(N)C(O)C(C)O1 (stereo not drawn) [Adriamycin, 10-(4-Amino-5-hydroxy-6-methyl-tetrahydro-pyran-2-yloxy)-6,8,11-trihydroxy-8-(2-hydroxyethanoyl)-1-methoxy-7,8,9,10-tetrahydro-naphthacene-5,12-dione, reference compound] | – | 30-50% | 7 to 13.2 µM |
| Cc1cc(O)c2c(c1)C(=O)c1cc(O)cc(O)c1C2=O [Emodin, 1,3,8-Trihydroxy-6-methyl-anthraquinone] | not more than 10% | 30-50% | – |
| COc1cccc2c1C(=O)c1c(O)c3c(c(O)c1C2=O)CC(O)(C(C)=O)CC3OC1CC(N)C(O)C(C)O1 (stereo not drawn) [Daunorubicin, 8-Acetyl-10-(4-amino-5-hydroxy-6-methyl-tetrahydro-pyran-2-yloxy)-6,8,11-trihydroxy-1-methoxy-7,8,9,10-tetrahydro-naphthacene-5,12-dione, reference compound] | – | 30-50% | – |
